Reference: PMC12424427
No constants are given. Whether binding was seen depends on the method and setting. Binding seen in cells or lysates may run through a third protein. Some binding calls cover weakened binding; strength is not graded here. For some assays here: Where a sequence is shown, tags or fusion partners need not be part of it. Each block holds one substance with its values, some of them ahead of it.

The chains behind the UniProt entries cited, without tags or fusion partners.
UniProt Q9UKV8: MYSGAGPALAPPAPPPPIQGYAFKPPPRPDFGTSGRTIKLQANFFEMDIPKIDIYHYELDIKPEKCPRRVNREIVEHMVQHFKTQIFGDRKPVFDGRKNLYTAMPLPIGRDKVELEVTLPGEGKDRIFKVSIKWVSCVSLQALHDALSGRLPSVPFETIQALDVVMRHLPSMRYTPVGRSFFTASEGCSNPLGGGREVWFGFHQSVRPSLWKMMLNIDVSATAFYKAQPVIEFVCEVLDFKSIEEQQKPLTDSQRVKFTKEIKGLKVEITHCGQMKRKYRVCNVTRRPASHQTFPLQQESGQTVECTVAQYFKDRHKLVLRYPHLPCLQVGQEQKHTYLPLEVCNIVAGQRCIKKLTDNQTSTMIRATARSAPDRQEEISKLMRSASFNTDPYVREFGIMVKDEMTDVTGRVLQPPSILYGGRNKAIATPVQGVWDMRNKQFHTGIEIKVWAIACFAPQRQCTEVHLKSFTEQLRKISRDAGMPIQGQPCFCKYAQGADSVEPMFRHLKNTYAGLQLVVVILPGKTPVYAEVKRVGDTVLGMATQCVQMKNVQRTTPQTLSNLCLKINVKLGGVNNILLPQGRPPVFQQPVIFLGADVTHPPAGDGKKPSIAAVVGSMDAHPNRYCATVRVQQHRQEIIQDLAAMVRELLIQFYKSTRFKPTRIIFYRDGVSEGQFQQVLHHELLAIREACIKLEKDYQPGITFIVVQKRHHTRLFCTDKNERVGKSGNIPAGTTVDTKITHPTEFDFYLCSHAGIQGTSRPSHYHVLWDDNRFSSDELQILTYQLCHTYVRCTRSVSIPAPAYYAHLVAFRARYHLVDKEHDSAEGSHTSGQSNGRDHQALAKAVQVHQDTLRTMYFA
UniProt Q9UPY3: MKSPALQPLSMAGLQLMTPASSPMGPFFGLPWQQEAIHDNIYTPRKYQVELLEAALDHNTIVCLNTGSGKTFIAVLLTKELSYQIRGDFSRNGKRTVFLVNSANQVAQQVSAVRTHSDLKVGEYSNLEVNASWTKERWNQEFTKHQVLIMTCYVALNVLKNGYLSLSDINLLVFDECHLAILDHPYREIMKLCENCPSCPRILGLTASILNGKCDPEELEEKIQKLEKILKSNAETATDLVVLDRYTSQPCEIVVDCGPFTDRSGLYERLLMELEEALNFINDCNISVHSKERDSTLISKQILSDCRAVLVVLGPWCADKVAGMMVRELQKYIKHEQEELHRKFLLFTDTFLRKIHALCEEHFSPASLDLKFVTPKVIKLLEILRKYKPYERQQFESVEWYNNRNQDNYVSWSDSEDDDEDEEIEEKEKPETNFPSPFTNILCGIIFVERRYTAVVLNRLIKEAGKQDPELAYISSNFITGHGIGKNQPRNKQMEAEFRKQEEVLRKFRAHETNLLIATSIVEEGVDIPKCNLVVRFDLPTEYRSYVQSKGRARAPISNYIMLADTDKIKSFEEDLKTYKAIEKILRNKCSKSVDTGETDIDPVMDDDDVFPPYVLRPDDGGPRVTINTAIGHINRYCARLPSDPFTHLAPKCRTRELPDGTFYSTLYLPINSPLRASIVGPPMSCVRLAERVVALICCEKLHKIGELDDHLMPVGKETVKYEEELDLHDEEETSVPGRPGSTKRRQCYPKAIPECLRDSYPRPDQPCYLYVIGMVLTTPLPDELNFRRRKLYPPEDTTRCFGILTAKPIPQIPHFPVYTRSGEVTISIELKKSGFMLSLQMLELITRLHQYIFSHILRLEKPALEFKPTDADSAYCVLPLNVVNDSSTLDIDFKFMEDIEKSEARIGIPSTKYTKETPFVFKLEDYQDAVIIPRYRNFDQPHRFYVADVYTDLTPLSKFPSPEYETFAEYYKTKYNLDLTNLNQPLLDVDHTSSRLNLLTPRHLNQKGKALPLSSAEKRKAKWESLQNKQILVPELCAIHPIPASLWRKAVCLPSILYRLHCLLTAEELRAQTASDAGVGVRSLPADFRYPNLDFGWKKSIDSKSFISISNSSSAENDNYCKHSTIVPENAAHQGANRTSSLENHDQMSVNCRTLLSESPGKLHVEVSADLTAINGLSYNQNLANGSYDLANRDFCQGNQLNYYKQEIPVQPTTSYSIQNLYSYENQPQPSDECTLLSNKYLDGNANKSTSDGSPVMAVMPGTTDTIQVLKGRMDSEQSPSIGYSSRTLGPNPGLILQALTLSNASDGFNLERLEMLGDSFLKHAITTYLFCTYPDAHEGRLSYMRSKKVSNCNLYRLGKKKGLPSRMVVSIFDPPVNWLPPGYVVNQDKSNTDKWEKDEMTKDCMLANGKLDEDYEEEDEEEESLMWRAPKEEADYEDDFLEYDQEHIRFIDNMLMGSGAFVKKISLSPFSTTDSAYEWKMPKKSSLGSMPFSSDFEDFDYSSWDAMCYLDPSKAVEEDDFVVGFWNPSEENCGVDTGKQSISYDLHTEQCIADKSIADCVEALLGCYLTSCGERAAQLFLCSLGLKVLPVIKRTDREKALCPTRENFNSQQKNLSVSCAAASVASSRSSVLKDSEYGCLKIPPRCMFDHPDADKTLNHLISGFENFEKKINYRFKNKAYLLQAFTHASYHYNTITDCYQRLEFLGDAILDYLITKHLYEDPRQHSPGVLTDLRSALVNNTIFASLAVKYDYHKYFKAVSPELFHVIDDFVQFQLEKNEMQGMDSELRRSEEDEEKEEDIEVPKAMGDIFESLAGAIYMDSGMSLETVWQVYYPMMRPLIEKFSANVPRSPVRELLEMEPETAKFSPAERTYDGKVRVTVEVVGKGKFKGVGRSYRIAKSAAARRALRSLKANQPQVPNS

Tests used:
[1] = biological target: T1, Flag-RIG-I, full length (FL) (UniProt O95786); assay: co-IP
T1 sequence: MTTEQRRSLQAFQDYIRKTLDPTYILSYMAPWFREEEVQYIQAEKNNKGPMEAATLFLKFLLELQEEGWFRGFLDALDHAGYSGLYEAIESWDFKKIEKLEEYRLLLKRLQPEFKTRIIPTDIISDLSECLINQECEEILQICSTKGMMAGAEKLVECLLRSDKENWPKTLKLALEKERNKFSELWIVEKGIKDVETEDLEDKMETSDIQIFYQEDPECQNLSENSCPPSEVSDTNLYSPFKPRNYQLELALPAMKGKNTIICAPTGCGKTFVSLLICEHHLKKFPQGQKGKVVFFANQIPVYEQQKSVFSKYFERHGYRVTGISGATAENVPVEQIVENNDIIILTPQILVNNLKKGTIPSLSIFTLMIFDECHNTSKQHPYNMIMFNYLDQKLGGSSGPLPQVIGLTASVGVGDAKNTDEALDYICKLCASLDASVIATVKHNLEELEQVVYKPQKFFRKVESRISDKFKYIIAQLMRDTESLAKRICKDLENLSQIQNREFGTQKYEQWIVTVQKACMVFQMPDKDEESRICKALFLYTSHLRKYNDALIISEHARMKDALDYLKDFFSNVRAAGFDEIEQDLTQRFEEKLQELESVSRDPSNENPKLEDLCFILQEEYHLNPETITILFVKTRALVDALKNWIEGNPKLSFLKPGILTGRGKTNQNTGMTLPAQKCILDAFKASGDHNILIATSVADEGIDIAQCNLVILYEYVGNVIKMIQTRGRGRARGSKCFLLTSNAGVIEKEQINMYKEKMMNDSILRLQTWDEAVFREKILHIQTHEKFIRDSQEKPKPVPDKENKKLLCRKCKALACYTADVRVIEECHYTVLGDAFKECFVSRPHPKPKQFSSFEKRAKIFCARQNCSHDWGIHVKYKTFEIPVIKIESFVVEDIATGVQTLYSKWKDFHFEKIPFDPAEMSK

[2] = biological target: T2, Flag-RIG-I- CARD-1∼230aa (UniProt O95786); assay: co-IP
T2 sequence: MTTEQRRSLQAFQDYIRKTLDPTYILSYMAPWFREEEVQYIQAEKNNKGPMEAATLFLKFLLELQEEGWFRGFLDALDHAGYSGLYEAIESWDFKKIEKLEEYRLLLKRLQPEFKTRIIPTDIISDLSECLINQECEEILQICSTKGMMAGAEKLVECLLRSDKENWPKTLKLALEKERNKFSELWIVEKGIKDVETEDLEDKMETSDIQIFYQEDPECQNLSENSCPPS

[3] = biological target: T3, Flag-RIG-I-Helicase-231∼790aa (UniProt O95786); assay: co-IP
T3 sequence: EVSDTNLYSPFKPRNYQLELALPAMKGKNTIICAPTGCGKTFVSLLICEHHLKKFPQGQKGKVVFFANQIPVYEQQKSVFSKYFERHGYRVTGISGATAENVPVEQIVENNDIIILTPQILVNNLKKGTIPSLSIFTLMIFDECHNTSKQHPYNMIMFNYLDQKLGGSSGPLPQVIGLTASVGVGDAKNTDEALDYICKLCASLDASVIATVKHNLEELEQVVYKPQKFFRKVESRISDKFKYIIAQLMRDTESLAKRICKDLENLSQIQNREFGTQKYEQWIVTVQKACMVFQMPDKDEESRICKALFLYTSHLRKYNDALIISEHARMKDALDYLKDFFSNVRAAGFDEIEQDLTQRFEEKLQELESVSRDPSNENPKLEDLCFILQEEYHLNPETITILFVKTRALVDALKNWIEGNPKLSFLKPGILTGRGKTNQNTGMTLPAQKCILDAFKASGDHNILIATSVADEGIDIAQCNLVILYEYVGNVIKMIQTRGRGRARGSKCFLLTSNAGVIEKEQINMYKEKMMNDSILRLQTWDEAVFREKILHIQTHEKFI

[4] = biological target: T4, RIG-I, endogenous (human (endogenous in A549)) (UniProt O95786); assay: co-IP
T4 sequence: T1 sequence

[5] = biological target: Argonaute 2 (AGO2), endogenous (human (endogenous in A549)) (UniProt Q9UKV8); assay: co-IP; Figure S5 (legend not shown); interaction with DICER under infection conditions

- binding [1]: binds
- binding [2]: binds
- binding [3]: binds
Substance: V5-AGO2, full length (from UniProt Q9UKV8 1-859)

- binding [4]: binds
Substance: Argonaute 2 (AGO2), endogenous (from UniProt Q9UKV8 1-859)

- binding [5]: binds
Substance: DICER, endogenous (from UniProt Q9UPY3 1-1922)
